Source: publication PMC4844956

T1: human CMTR1 fused to the GAL4 binding domain (human) (UniProt Q8N1G2)
T1 sequence: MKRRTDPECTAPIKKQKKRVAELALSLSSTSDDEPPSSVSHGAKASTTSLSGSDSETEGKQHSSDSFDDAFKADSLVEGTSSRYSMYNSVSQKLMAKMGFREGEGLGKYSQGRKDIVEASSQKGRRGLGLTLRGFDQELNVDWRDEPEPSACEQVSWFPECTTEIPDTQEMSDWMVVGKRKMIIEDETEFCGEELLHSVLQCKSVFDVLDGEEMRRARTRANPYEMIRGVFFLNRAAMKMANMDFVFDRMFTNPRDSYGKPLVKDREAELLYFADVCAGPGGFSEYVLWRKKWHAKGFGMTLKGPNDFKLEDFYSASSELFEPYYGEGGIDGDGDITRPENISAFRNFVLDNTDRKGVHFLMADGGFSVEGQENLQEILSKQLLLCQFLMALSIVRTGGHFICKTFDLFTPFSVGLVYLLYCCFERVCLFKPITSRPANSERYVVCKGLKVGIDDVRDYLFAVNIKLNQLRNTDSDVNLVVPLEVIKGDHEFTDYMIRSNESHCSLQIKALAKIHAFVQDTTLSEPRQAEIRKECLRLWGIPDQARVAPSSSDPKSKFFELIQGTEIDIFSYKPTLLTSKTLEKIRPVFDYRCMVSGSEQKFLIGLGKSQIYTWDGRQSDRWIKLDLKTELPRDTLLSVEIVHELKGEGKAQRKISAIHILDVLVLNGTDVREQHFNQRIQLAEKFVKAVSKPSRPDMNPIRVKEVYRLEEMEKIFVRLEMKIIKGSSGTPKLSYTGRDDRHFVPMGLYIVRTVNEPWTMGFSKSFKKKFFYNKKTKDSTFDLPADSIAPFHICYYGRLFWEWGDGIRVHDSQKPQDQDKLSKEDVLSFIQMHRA

T2: human RG9MTD1 fused to the GAL4 binding domain (human) (UniProt Q7L0Y3)
T2 sequence: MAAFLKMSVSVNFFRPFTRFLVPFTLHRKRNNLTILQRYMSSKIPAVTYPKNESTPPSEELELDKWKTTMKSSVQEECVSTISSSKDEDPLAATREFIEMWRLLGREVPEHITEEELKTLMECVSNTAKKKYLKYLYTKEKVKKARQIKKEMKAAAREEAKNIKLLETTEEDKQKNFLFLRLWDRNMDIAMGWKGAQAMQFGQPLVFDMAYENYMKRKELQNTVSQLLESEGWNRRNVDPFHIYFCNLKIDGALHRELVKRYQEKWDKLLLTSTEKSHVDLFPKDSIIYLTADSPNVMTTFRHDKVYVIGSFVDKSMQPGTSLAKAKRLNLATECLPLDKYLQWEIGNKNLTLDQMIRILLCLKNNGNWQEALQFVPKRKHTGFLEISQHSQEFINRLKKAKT

T3: human CMTR2 fused to the GAL4 binding domain (human) (UniProt Q8IYT2)
T3 sequence: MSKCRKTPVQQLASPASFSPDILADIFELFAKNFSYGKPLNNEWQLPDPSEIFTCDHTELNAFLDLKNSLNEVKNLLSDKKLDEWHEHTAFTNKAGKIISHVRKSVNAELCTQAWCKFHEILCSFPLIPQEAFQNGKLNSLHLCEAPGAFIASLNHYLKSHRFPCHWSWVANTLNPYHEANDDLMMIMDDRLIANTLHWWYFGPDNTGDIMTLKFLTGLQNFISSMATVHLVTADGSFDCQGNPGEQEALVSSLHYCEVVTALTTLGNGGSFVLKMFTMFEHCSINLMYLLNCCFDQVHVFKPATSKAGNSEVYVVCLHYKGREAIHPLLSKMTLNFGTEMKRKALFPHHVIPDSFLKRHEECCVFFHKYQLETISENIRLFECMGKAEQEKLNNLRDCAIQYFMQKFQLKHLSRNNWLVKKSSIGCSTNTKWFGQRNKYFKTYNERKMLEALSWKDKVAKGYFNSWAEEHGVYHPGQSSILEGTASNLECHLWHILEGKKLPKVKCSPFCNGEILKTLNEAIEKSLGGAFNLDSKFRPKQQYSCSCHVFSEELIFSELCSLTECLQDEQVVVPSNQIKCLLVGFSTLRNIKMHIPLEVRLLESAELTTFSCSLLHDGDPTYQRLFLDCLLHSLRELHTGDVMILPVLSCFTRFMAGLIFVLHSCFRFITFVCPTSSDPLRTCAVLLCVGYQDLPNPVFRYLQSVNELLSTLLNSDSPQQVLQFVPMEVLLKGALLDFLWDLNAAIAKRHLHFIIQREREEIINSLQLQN


What was measured:
[1] = target: T1, human CMTR1 fused to the GAL4 binding domain (human); experiment: two-hybrid; GAL4 system in Y2H Gold; cotransformants replica plated on LTHA−, LTH−Ar+, LT−+X-α-gal and LTH− with 0-20 mM 3-AT, 30 °C, growth scored + to +++
[2] = target: T2, human RG9MTD1 fused to the GAL4 binding domain (human); experiment: as above
[3] = target: T3, human CMTR2 fused to the GAL4 binding domain (human); experiment: as above
[4] = target: D1 ORF3 deletion fused to the GAL4 binding domain (Hepatitis E virus genotype 1, SAR 55 strain); experiment: two-hybrid; GAL4 system in Y2H Gold; quantitative liquid α-galactosidase assay (MEL1 reporter) of cotransformants, triplicates
[5] = target: D3 ORF3 deletion fused to the GAL4 binding domain (Hepatitis E virus genotype 1, SAR 55 strain); experiment: as above
[6] = target: D4 ORF3 deletion fused to the GAL4 binding domain (Hepatitis E virus genotype 1, SAR 55 strain); experiment: as above
[7] = target: D7 ORF3 deletion (63-123aa) fused to the GAL4 binding domain (Hepatitis E virus genotype 1, SAR 55 strain); experiment: as above
[8] = target: D5 ORF3 deletion fused to the GAL4 binding domain (Hepatitis E virus genotype 1, SAR 55 strain); experiment: as above
[9] = target: D6 ORF3 deletion (33-123aa) fused to the GAL4 binding domain (Hepatitis E virus genotype 1, SAR 55 strain); experiment: as above
[10] = target: D2 ORF3 deletion fused to the GAL4 binding domain (Hepatitis E virus genotype 1, SAR 55 strain); experiment: as above
[11] = target: D1 ORF3 deletion fused to the GAL4 binding domain (Hepatitis E virus genotype 1, SAR 55 strain); experiment: two-hybrid; GAL4 system in Y2H Gold; cotransformants replica plated on LTHA−, LTH−Ar+, LT−+X-α-gal and LTH− with 0-20 mM 3-AT, 30 °C, growth scored + to +++
[12] = target: D3 ORF3 deletion fused to the GAL4 binding domain (Hepatitis E virus genotype 1, SAR 55 strain); experiment: as above
[13] = target: D4 ORF3 deletion fused to the GAL4 binding domain (Hepatitis E virus genotype 1, SAR 55 strain); experiment: as above
[14] = target: D7 ORF3 deletion (63-123aa) fused to the GAL4 binding domain (Hepatitis E virus genotype 1, SAR 55 strain); experiment: as above
[15] = target: D5 ORF3 deletion fused to the GAL4 binding domain (Hepatitis E virus genotype 1, SAR 55 strain); experiment: as above
[16] = target: D6 ORF3 deletion (33-123aa) fused to the GAL4 binding domain (Hepatitis E virus genotype 1, SAR 55 strain); experiment: as above
[17] = target: D2 ORF3 deletion fused to the GAL4 binding domain (Hepatitis E virus genotype 1, SAR 55 strain); experiment: as above

| Molecule | binding [1] | binding [2] | binding [3] | binding [4] | binding [5] | binding [6] | binding [7] | binding [8] | binding [9] | binding [10] | binding [11] | binding [12] | binding [13] | binding [14] | binding [15] | binding [16] | binding [17] |
| --- | --- | --- | --- | --- | --- | --- | --- | --- | --- | --- | --- | --- | --- | --- | --- | --- | --- |
| human MacroH2A1.1 fused to the GAL4 activation domain | no binding | no binding | no binding | – | – | – | – | – | – | – | – | – | – | – | – | – | – |
| human PARP14 fused to the GAL4 activation domain | no binding | no binding | no binding | – | – | – | – | – | – | – | – | – | – | – | – | – | – |
| HEV X-domain (macro domain) fused to the GAL4 activation domain (domain or fragment, UniProt P33424 775-921) ARHRRLLFTYPDGSKVFAGSLFESTCTWLVNASNVDHRPGGGLCHAFYQRYPASFDAASFVMRDGAAAYTLTPRPIIHAVAPDYRLEHNPKRLEAAYRETCSRLGTAAYPLLGTGIYQVPIGPSFDAWERNHRPGDELYLPELAARW | – | – | – | binds weakly | binds weakly | binds weakly | binds | no binding | binds | binds weakly | binds weakly | binds weakly | binds weakly | binds | no binding | binds | binds weakly |

These are yes or no findings as the source states them, for the method shown. For some assays here: Binding calls can cover weak binding; strength is not graded here. Sequences can lack the tags named with a protein.
